The values that follow come from paper PMC7862700.

Only a part is listed here, and it is no random draw. For part of these data: At the low end of the ranking the order means little. This is one part of the list. For part of these data: The exact form of the protein is not confirmed.

Holding throughout (assay): DAPPL (digital affinity profiling via proximity ligation, sequencing)
Common to all, as to conditions: 10 mM Tris-HCl pH 7.5, 50 mM NaCl, 1 mM DTT, 4% glycerol, room temperature, 30 min; GST-TFs on glutathione beads, 16-mer random dsDNA library, 0.1% …; high values mean tight binding; double strand, one strand shown; scale: fold enrichment (6-mer frequency, TF over GST control)

One assay addresses T1, GABPA (UniProt Q06546).
T1 sequence: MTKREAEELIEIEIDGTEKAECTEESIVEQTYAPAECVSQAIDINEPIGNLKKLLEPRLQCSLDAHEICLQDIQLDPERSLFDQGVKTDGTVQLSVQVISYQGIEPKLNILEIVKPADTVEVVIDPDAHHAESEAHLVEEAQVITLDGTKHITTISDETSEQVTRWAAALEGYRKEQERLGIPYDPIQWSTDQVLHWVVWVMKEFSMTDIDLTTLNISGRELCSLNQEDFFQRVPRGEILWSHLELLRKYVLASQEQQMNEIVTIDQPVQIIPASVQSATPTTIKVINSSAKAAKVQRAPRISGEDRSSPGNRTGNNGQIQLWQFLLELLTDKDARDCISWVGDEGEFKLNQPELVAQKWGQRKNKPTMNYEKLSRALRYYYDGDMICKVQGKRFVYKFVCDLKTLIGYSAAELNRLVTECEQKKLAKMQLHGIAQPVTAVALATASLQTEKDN

A further assay addresses T2, ETS1 (UniProt P14921).
T2 sequence: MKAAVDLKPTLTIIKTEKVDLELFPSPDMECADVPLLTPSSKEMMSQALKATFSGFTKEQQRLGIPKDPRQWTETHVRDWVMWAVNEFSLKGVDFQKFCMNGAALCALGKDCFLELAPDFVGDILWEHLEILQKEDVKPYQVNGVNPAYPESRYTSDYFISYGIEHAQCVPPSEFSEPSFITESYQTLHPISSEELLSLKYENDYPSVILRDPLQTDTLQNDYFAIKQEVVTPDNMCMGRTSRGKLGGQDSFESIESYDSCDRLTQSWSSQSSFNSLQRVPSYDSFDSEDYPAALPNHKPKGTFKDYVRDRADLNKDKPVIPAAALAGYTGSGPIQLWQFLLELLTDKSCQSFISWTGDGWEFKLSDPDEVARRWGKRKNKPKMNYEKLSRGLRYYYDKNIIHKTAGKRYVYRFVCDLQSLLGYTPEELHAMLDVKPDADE

In a further assay the target is T3, SPDEF (UniProt O95238).
T3 sequence: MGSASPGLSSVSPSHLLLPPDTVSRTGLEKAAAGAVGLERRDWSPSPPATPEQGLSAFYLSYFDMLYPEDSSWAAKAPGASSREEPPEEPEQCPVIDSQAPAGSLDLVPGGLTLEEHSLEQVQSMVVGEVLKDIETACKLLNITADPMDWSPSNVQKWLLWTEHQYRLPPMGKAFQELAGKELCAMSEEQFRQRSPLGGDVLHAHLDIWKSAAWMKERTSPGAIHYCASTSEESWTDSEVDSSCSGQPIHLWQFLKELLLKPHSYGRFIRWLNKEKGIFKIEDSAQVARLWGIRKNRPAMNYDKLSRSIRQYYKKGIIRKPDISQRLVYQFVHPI

Regarding GATCAG, the results for the binding signal in the assay with GABPA, with ETS1 and with SPDEF were 0.716, 0.759 and 0.687, respectively.
With CGCAGA, the binding signal with GABPA is 0.831; with ETS1 it was 0.808; with SPDEF, 0.756.
Regarding GTCCGT, the binding signal with GABPA worked out at 0.527; with ETS1, 0.483; with SPDEF it was 0.616.
Regarding GAACCG, the values for the binding signal in the assay with GABPA, with ETS1 and in the assay with SPDEF were 0.67, 0.671 and 0.83, respectively.
The corresponding values for GGGACG are 0.462, 0.449 and 0.478.
For the sequence AGTCAT, the figures for the binding signal in the assay with GABPA, with ETS1 and with SPDEF were 0.597, 0.583 and 0.568, respectively.
In the case of GACAGG, the binding signal turned out to be 0.543 in the assay with GABPA, 0.541 in the assay with ETS1 and 0.576 in the assay with SPDEF.
With GCCGAG, the binding signal with GABPA turned out to be 0.683; with ETS1 it was 0.659; in the assay with SPDEF it was 0.549.
With TGACGT, the binding signal with GABPA was 0.943; with ETS1, 0.899; with SPDEF, 0.894.
In the case of CCATGA, the binding signal in the assay with GABPA turned out to be 0.944; with ETS1, 0.87; with SPDEF, 0.844.
For GGTCGC, the binding signal with GABPA was 0.983; with ETS1 it was 0.835; with SPDEF, 0.817.
The corresponding values for ACAGGG are 0.766, 0.828 and 0.825.
As for ACCGTA, the values for the binding signal with GABPA, with ETS1 and in the assay with SPDEF were 0.903, 0.875 and 0.878, respectively.
In the case of CAGCGT, the binding signal with GABPA came to 0.849; with ETS1, 0.839; with SPDEF, 0.838.
For the sequence GGGCCG, the binding signal amounted to 0.604 in the assay with GABPA, 0.637 with ETS1 and 0.644 in the assay with SPDEF.
Regarding CGCTGA, the binding signal with GABPA came to 0.796; with ETS1 it was 0.91; in the assay with SPDEF, 0.819.
The corresponding values for GTCGAT are 0.744, 0.656 and 0.756.
The corresponding values for GTCAGT are 0.613, 0.607 and 0.602.
Consider CAGGGA, for which the values for the binding signal with GABPA, in the assay with ETS1 and with SPDEF were 0.478, 0.497 and 0.508, respectively.
Regarding GGAGGG, the binding signal with GABPA was 0.329; with ETS1 it was 0.316; in the assay with SPDEF, 0.312.
On to ATAGGA, for which the binding signal with GABPA worked out at 0.784; with ETS1 it was 0.787; with SPDEF, 0.899.
Regarding AAGCGT, the binding signal with GABPA came out at 0.878; in the assay with ETS1, 0.887; with SPDEF it was 0.829.
Turning to GCCCGT, the figures for the binding signal with GABPA, with ETS1 and in the assay with SPDEF were 0.721, 0.67 and 0.652, respectively.
As for GTCAAG, the binding signal in the assay with GABPA is 0.776; with ETS1 it was 0.768; with SPDEF, 0.81.
The corresponding values for GACGGC are 0.773, 0.749 and 0.822.
The corresponding values for CAACAG are 0.966, 0.93 and 0.945.
For GAGCAC, the binding signal is 0.757 in the assay with GABPA, 0.697 in the assay with ETS1 and 0.683 with SPDEF.
On to CGCAGG, for which the binding signal with GABPA is 0.855; in the assay with ETS1 it was 0.788; with SPDEF it was 0.907.
For AGTGCG, in that order: 0.683, 0.827 and 0.752.
For the sequence GACGCT, the binding signal with GABPA is 0.8; in the assay with ETS1, 0.78; with SPDEF it was 0.742.
Take CCAGTG: the binding signal in the assay with GABPA was found to be 0.467; with ETS1 it was 0.492; with SPDEF it was 0.437.
For the sequence AAGGGG, the binding signal with GABPA was determined as 0.98; with ETS1, 0.963; with SPDEF it was 0.804.
For GGCCGC, in that order: 0.854, 0.782 and 0.784.
For GGTGGC, in that order: 0.778, 0.806 and 0.589.
The corresponding values for GGGCGC are 0.619, 0.54 and 0.587.
For CTGAGT, the binding signal is 0.64 in the assay with GABPA, 0.616 in the assay with ETS1 and 0.584 with SPDEF.
Regarding ACCAGT, the binding signal with GABPA worked out at 0.467; with ETS1, 0.459; with SPDEF, 0.454.
With TCGGCA, the binding signal in the assay with GABPA worked out at 0.671; with ETS1 it was 0.694; with SPDEF, 0.659.
In the case of ACAACG, the binding signal turned out to be 0.95 with GABPA, 0.979 in the assay with ETS1 and 0.913 with SPDEF.
Consider CAGCAG, for which the figures for the binding signal in the assay with GABPA, in the assay with ETS1 and in the assay with SPDEF were 0.811, 0.837 and 0.786, respectively.
For GCGGAC, in that order: 0.619, 0.656 and 0.741.
As for CAAGAC, the figures for the binding signal with GABPA, with ETS1 and with SPDEF were 0.841, 0.754 and 0.849, respectively.
For GCAGAG, the values for the binding signal with GABPA, in the assay with ETS1 and with SPDEF were 0.67, 0.65 and 0.64, respectively.
For TACGTG, in that order: 0.716, 0.714 and 0.712.
For CTAGTC, the figures for the binding signal with GABPA, with ETS1 and with SPDEF were 0.774, 0.826 and 0.741, respectively.
Turning to TGAGGT, the binding signal in the assay with GABPA was 0.628; with ETS1 it was 0.631; in the assay with SPDEF it was 0.58.
For the sequence GCGTGG, the binding signal with GABPA stood at 0.544; with ETS1 it was 0.545; in the assay with SPDEF, 0.541.
With CATCGG, the binding signal with GABPA came out at 0.681; with ETS1, 0.662; in the assay with SPDEF, 0.679.
For CCGGAG, in that order: 0.48, 0.515 and 0.591.
As to CGGTGA, the binding signal turned out to be 0.502 with GABPA, 0.452 with ETS1 and 0.456 in the assay with SPDEF.
The corresponding values for GGCTGG are 0.722, 0.733 and 0.715.
For the sequence CGCAGT, the binding signal with GABPA amounted to 0.785; with ETS1, 0.783; with SPDEF it was 0.706.
Take CAGTGT: the binding signal turned out to be 0.701 in the assay with GABPA, 0.699 in the assay with ETS1 and 0.69 with SPDEF.
Take ACTGAG: the binding signal with GABPA was 0.785; with ETS1 it was 0.739; with SPDEF, 0.776.
In the case of CCAGCG, the binding signal with GABPA was determined as 0.608; in the assay with ETS1, 0.622; in the assay with SPDEF, 0.657.
GACGTG: the binding signal worked out at 0.323 in the assay with GABPA, 0.313 in the assay with ETS1 and 0.324 with SPDEF.
In the case of GCAGCG, the binding signal in the assay with GABPA came out at 0.842; with ETS1 it was 0.785; with SPDEF it was 0.826.
For AGGTGG, the results for the binding signal with GABPA, in the assay with ETS1 and with SPDEF were 0.604, 0.583 and 0.577, respectively.
Turning to GGGGGA, the binding signal came to 0.562 with GABPA, 0.579 with ETS1 and 0.591 with SPDEF.
GCAGTA: the binding signal was determined as 0.884 with GABPA, 0.957 with ETS1 and 0.839 with SPDEF.
